## Cleaved PARP after 72 h of treatment

From a melanoma drug combination screen (doi:10.1371/journal.pone.0140310); values rounded.

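Human melanoma cells were exposed to two drugs together for 72 h in 1,536-well plates and read by automated microscopy after fixing and staining. Values are the share of nuclei positive for cleaved PARP as a percentage of the same share in the DMSO control: 100 is the control level, higher means more apoptosis. Every drug was used at one fixed concentration, the higher of two screened. The file gives one value for each pair and line, without errors, so small differences may be noise. The marker varies much from line to line, for technical or biological reasons.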 Only some of the drugs and lines screened are listed, without regard to their results. A dash means that no value is listed here.

Drugs:
KU-55933, 5 µM: O=c1cc(-c2cccc3c2Sc2ccccc2S3)oc(N2CCOCC2)c1
OSI-906, 2 µM: C[C@]1(O)C[C@@H](c2nc(-c3ccc4ccc(-c5ccccc5)nc4c3)c3c(N)nccn32)C1
embelin, 6 µM: CCCCCCCCCCCC1=C(O)C(=O)C=C(O)C1=O
vorinostat, 0.4 µM: O=C(CCCCCCC(=O)Nc1ccccc1)NO
enzastaurin, 4 µM: Cn1cc(C2=C(c3cn(C4CCN(Cc5ccccn5)CC4)c4ccccc34)C(=O)NC2=O)c2ccccc21
gemcitabine, 0.002 µM: Nc1ccn([C@@H]2O[C@H](CO)[C@@H](O)C2(F)F)c(=O)n1
tozasertib, 0.03 µM: Cc1cc(Nc2cc(N3CCN(C)CC3)nc(Sc3ccc(NC(=O)C4CC4)cc3)n2)n[nH]1
SU6656, 2 µM: CN(C)S(=O)(=O)c1ccc2c(c1)/C(=C/c1cc3c([nH]1)CCCC3)C(=O)N2
ruxolitinib, 5 µM: N#CC[C@H](C1CCCC1)n1cc(-c2ncnc3[nH]ccc23)cn1
NVP-BEZ235, 0.02 µM: Cn1c(=O)n(-c2ccc(C(C)(C)C#N)cc2)c2c3cc(-c4cnc5ccccc5c4)ccc3ncc21
TCS401, 8.33 µM: O=C(O)C(=O)Nc1sc2c(c1C(=O)O)CCNC2
tanespimycin, 0.01 µM: C=CCNC1=C2C[C@@H](C)C[C@H](OC)[C@H](O)[C@@H](C)/C=C(\C)[C@H](OC(N)=O)[C@@H](OC)/C=C\C=C(/C)C(=O)NC(=CC1=O)C2=O
FH535, 5 µM: Cc1cc([N+](=O)[O-])ccc1NS(=O)(=O)c1cc(Cl)ccc1Cl
SNS-314, 0.004 µM: O=C(Nc1cccc(Cl)c1)Nc1ncc(CCNc2ncnc3ccsc23)s1
GW9662, 10 µM: O=C(Nc1ccccc1)c1cc([N+](=O)[O-])ccc1Cl
SNS-032, 0.05 µM: CC(C)(C)c1cnc(CSc2cnc(NC(=O)C3CCNCC3)s2)o1
crizotinib, 1 µM: C[C@@H](Oc1cc(-c2cnn(C3CCNCC3)c2)cnc1N)c1c(Cl)ccc(F)c1Cl
temozolomide, 10 µM: Cn1nnc2c(C(N)=O)ncn2c1=O
PF-04217903, 5 µM: OCCn1cc(-c2cnc3nnn(Cc4ccc5ncccc5c4)c3n2)cn1
dorsomorphin, 2 µM: c1cc(-c2cnn3cc(-c4ccc(OCCN5CCCCC5)cc4)cnc23)ccn1

Combination | A375 | COLO 792 | WM3526 | WM1745 | UACC-62 | WM3619
enzastaurin + OSI-906 | 37.6 | 118 | 123 | 191 | 158 | 84.8
tozasertib + temozolomide | 85.8 | 285 | 67.7 | 181 | 195 | 115
embelin + SNS-314 | 87.9 | 242 | 33.6 | 127 | 7.9 | 124
dorsomorphin + SU6656 | 166 | 37.3 | 121 | 258 | 386 | 323
PF-04217903 + crizotinib | - | 110 | 122 | 228 | 141 | 132
dorsomorphin + vorinostat | 89.2 | 156 | 163 | 309 | 405 | 142
KU-55933 + vorinostat | 50.0 | 171 | 94.4 | 118 | 169 | 119
SNS-032 + tozasertib | - | 149 | 127 | 132 | 141 | 154
SU6656 + tanespimycin | - | 227 | 131 | 150 | 168 | 142
vorinostat + ruxolitinib | - | 122 | 72.5 | 89.1 | 89.8 | 131
NVP-BEZ235 + tanespimycin | 142 | 125 | 292 | 145 | 362 | 186
gemcitabine + OSI-906 | 160 | 94.1 | 167 | 194 | 148 | 121
enzastaurin + SNS-314 | - | 244 | 590 | 112 | 89.1 | 95.1
tozasertib + FH535 | 126 | 67.3 | 125 | - | 115 | 124
SNS-032 + KU-55933 | 81.5 | 86.0 | 230 | 106 | 284 | 172
GW9662 + NVP-BEZ235 | 266 | 28.0 | 117 | - | 176 | 150
tanespimycin + TCS401 | 18.8 | 57.9 | 268 | - | 198 | 141
TCS401 + SU6656 | 79.0 | 97.0 | 139 | 672 | 38.5 | 128
crizotinib + gemcitabine | 17.4 | 128 | 56.9 | 180 | 115 | 382
tanespimycin + gemcitabine | 69.2 | 154 | 243 | 181 | 415 | 118